Experimental findings from article PMC10460844, “Real‐Time Monitoring of Multitarget Antimicrobial Mechanisms of Peptoids Using Label‐Free Imaging with Optical Diffraction Tomography” (Advanced Science, 2023) are described below.

Each structure is given as a SMILES string. Structures can show the parent of a compound that is named as a salt. Square brackets hold non-standard residues; d marks the D form. Peptide text beside a SMILES is read from it. Gly(N(CH2)2(3-indolyl)) = O=C(O)CNCCc1c[nH]c2ccccc12; Nspe = C[C@H](NCC(=O)O)c1ccccc1; Nlys = NCCCCNCC(=O)O

The data set deals with rat erythrocytes. The data set can be described thus: Hemolysis assay. Type of data set: cell-based. Here is the method: The hemolysis assay was performed using rat erythrocytes in phosphate‐buffered saline (PBS), as reported by Mendes et al.^[ [45] ^] Animal studies were approved by the Laboratory Animal Resource Center of Gwangju Institute of Science and Technology. Blood was collected from a 13‐week‐old male Sprague‐Dawley rat in tubes containing 158 USP units of sodium heparin to prevent coagulation and centrifuged at 1000 rpm for 10 min at 4 °C. Plasma was removed carefully and erythrocyte pellets were washed three times with PBS (35 mM phosphate, pH 7.4, 150 mM NaCl). Next, 150 µL of a 10% erythrocyte suspension was mixed with 50 µL of serially diluted peptoids (0–100 µM) in a 96‐well black polypropylene plates (Greiner, Kremsmünster, Austria). Untreated erythrocytes and cells lysed by the addition of 1% Triton X‐100 were used as negative and positive controls, respectively, with the 1% Triton X‐100‐treated wells being accepted to represent 100% hemolysis. The reaction mixture was incubated at 37 °C for 60 min, and the plates were centrifuged at 1000 rpm for 15 min. Aliquots (150 µL) of the supernatant were transferred to fresh 96‐well plates, and the absorbance of each well was measured at 540 nm using a microplate reader. Hemolysis induced by peptoids was calculated as the percentage value of Triton X‐100 lysed cells. The percentage of hemolysis by the extracts was calculated according to the following formula: % hemolysis = [(Abs 540 nm in the peptoid solution – Abs 540 nm in PBS) / (Abs 540 nm in 1% Triton X‐100 – Abs 540 nm in PBS)] × 100. HC10 and HC50 were defined as the peptoid concentrations that caused 10% and 50% hemolysis in rat erythrocytes, respectively. H max indicates the percentage of hemolysis observed at the maximum peptoid concentration, 100 µM throughout this study.

Where [1] appears, read: Table S3, HC10 divided by MIC in E. coli ATCC 25922.
Setting [2] is: HC10 divided by MIC against E. coli ATCC 25922.

Under setting [1], `C[C@@H](c1ccccc1)N(CC(N)=O)C(=O)CN(C(=O)CN(CCCCN)C(=O)CN(C(=O)CN(C(=O)CN(CCCCN)C(=O)CN(C(=O)CN(C(=O)CN(CCCCN)C(=O)CN(C(=O)CN(C(=O)CNCCCCN)[C@@H](C)c1ccccc1)[C@@H](C)c1ccccc1)[C@@H](C)c1ccccc1)[C@@H](C)c1ccccc1)[C@@H](C)c1ccccc1)[C@@H](C)c1ccccc1)[C@@H](C)c1ccccc1` [1-AcOH] (H-[Nlys][Nspe][Nspe][Nlys][Nspe][Nspe][Nlys][Nspe][Nspe][Nlys][Nspe][Nspe]-NH2) had a selectivity index of 2.0.

On to `C[C@@H](c1ccccc1)N(CC(N)=O)C(=O)CN(C(=O)CN(CCCCN)C(=O)CN(C(=O)CN(C(=O)CN(CCCCN)C(=O)CN(C(=O)CN(C(=O)CN(CCCCN)C(=O)CN(C(=O)CN(C(=O)CNCCCCN)[C@@H](C)c1ccccc1)[C@@H](C)c1ccccc1)[C@@H](C)c1ccccc1)[C@@H](C)c1ccccc1)[C@@H](C)c1ccccc1)[C@@H](C)c1ccccc1)[C@@H](C)c1ccccc1` [1-HCl] (H-[Nlys][Nspe][Nspe][Nlys][Nspe][Nspe][Nlys][Nspe][Nspe][Nlys][Nspe][Nspe]-NH2), for which the selectivity index under setting [1] was found to be 4.4. For the molecule `C[C@@H](c1ccccc1)N(CC(N)=O)C(=O)CN(C(=O)CN(CCCCN)C(=O)CN(C(=O)CN(C(=O)CN(CCCCN)C(=O)CN(C(=O)CN(C(=O)CN(CCCCN)C(=O)CN(C(=O)CN(C(=O)CNCCCCN)[C@@H](C)c1ccccc1)[C@@H](C)c1ccccc1)[C@@H](C)c1ccccc1)[C@@H](C)c1ccccc1)[C@@H](C)c1ccccc1)[C@@H](C)c1ccccc1)[C@@H](C)c1ccccc1` [peptoid 1, reference compound] (H-[Nlys][Nspe][Nspe][Nlys][Nspe][Nspe][Nlys][Nspe][Nspe][Nlys][Nspe][Nspe]-NH2), the selectivity index under setting [2] turned out to be 1.3 and the selectivity index under setting [1] came to 2.5. Consider `C[C@@H](c1ccccc1)N(CC(=O)N(CCCCN)CC(=O)N(CCc1c[nH]c2ccccc12)CC(=O)N(CCc1c[nH]c2ccccc12)CC(N)=O)C(=O)CN(CCCCN)C(=O)CN(CCCCN)C(=O)CN(C(=O)CN(C(=O)CN(CCCCN)C(=O)CN(C(=O)CN(C(=O)CNCCCCN)[C@@H](C)c1ccccc1)[C@@H](C)c1ccccc1)[C@@H](C)c1ccccc1)[C@@H](C)c1ccccc1` [peptoid 29] (H-[Nlys][Nspe][Nspe][Nlys][Nspe][Nspe][Nlys][Nlys][Nspe][Nlys][Gly(N(CH2)2(3-indolyl))][Gly(N(CH2)2(3-indolyl))]-NH2), for which the selectivity index under setting [2] is given as above 15.9 and the selectivity index under setting [1] is recorded as 14.1. Regarding `C[C@@H](c1ccccc1)N(CC(N)=O)C(=O)CN(CCCCN)C(=O)CN(C(=O)CN(C(=O)CN(CCCCN)C(=O)CN(C(=O)CN(C(=O)CN(CCCCN)C(=O)CN(C(=O)CN(CCCCN)C(=O)CN(CCCCN)C(=O)CN(C(=O)CNCCc1c[nH]c2ccccc12)[C@@H](C)c1ccccc1)[C@@H](C)c1ccccc1)[C@@H](C)c1ccccc1)[C@@H](C)c1ccccc1)[C@@H](C)c1ccccc1)[C@@H](C)c1ccccc1` [peptoid 64], for the setting “Table S2, HC10 divided by MIC in E. coli ATCC 25922”, the selectivity index came to 5.7.
